From patent publication US11046668B2, “Small molecule antimicrobials” (Ohio State Innovation Foundation, priority 2016, dated 2021)
Some entries share one result that the patent states for a list of compounds.

Assays:
C. jejuni and C. coli = assay: Efficacy when incorporated in edible films (Example 1); type: cell-based, Campylobacter; settings: compound incorporated in edible films
C. coli = assay: Growth inhibition screen; type: cell-based; settings: derivatized compounds selected for further analysis
C. jejuni 81-176 = assay: Growth inhibition screen; type: cell-based; settings: derivatized compounds selected for further analysis

## O=S(=O)(NCc1ccc(F)cc1)c1ccc(Cl)s1 [TH-4]
C. jejuni and C. coli
  reduction of Campylobacter: 4-6 log
C. coli
  growth inhibition, cut off used to identify potent compounds: ≥ 70.0%
C. jejuni 81-176
  growth inhibition, cut off used to identify potent compounds: ≥ 70.0%

## Cc1ccccc1CNS(=O)(=O)c1ccc(Cl)s1 [TH-8]
C. jejuni and C. coli
  reduction of Campylobacter: 4-6 log
C. coli
  growth inhibition, cut off used to identify potent compounds: ≥ 70.0%
C. jejuni 81-176
  growth inhibition, cut off used to identify potent compounds: ≥ 70.0%
